# Reference: paper PMC10313624 (EJNMMI Radiopharmacy and Chemistry, 2023)
# Bridge positions count the residues as written; N and C are the ends. Square brackets hold non-standard residues; d marks the D form. Peptide text beside a SMILES is read from it. * marks the point of attachment. DOTA = O=C(O)CN1CCN(CC(=O)O)CCN(CC(=O)*)CCN(CC(=O)O)CC1; dPhe(4-NHCONH2) = NC(=O)Nc1ccc(C[C@@H](N)C(=O)O)cc1; Dihydroorotyl(S) = O=C1C[C@@H](C(=O)*)NC(=O)N1; Phe(4-Cl) = N[C@@H](Cc1ccc(Cl)cc1)C(=O)O; Phe(4-NH2) = Nc1ccc(C[C@H](N)C(=O)O)cc1
# System: H69 tumor-bearing mice
# Assay: Dosimetry: absorbed dose per administered activity (MIRD, 25 g Olinda mouse phantom)
# Type: in vivo
# [1] = 25 g mouse phantom, alpha contribution weighted with RBE = 5
compound,measurement,setting,value
C[C@@H](O)[C@@H]1NC(=O)[C@H](CCCCN)NC(=O)[C@@H](Cc2ccc(NC(N)=O)cc2)NC(=O)[C@H](Cc2ccc(NC(=O)[C@@H]3CC(=O)NC(=O)N3)cc2)NC(=O)[C@H](NC(=O)[C@H](Cc2ccc(Cl)cc2)NC(=O)CN2CCN(CC(=O)O)CCN(CC(=O)O)CCN(CC(=O)O)CC2)CSSC[C@@H](C(=O)N[C@H](Cc2ccc(O)cc2)C(N)=O)NC1=O [[^225Ac]Ac-DOTA-JR11] [metal not drawn] ({DOTA}-[Phe(4-Cl)][dC][Phe(4-NH2)](Dihydroorotyl(S))[dPhe(4-NHCONH2)]KTC[dY]-NH2; disulfide 2-7 (inferred); C-terminus assumed),"Absorbed dose per administered activity d(rt), Tumor (150 mg)","0.15 cm^3 water sphere S-value (IDAC-dose), alpha RBE = 5",328.5 mGy/kBq
same,"Absorbed dose per administered activity d(rt), Heart",[1],11.2 mGy/kBq
same,"Absorbed dose per administered activity d(rt), Intestines",[1],40.3 mGy/kBq
same,"Absorbed dose per administered activity d(rt), Kidneys",[1],952.6 mGy/kBq
same,"Absorbed dose per administered activity d(rt), Liver",[1],271.4 mGy/kBq
same,"Absorbed dose per administered activity d(rt), Lungs",[1],37.2 mGy/kBq
same,"Absorbed dose per administered activity d(rt), Pancreas",[1],284.4 mGy/kBq
same,"Absorbed dose per administered activity d(rt), Skeleton",[1],0.1 mGy/kBq
same,"Absorbed dose per administered activity d(rt), Spleen",[1],76.4 mGy/kBq
same,"Absorbed dose per administered activity d(rt), Stomach Wall",[1],137.2 mGy/kBq
same,"Absorbed dose per administered activity d(rt), Total Body",[1],44.0 mGy/kBq
same,T/K ratio (tumor/kidney absorbed dose ratio),"actinium-225, alpha RBE = 5",0.35
